The exact form of at least one protein or probe is not confirmed.
Tested on: CaDof1 (Capsicum annuum)
Assay: EMSA
Settings: 100 ng protein, 1 ul of 2 uM probe, poly dIdC, HEPES/KOH pH 7.9, KCl; oligomers ligated before labelling; purified recombinant protein; label: 32P

Sequence: CTCTTTAATTTCCCA (double strand) [TMV-inducible element of CaPR-4 promoter]
- binding result: binds
